Measurements as given in publication PMC10665427.
No constants are given. Whether binding was seen depends on the method and setting. In cells and extracts the contact can be indirect. These calls come from enrichment with a bait or labelling near it, and not all partners need be listed. Tags and fused reporters may be left off the sequences shown.

Each substance was assayed against T1, Lon^TRAP-Twin-Strep-tag (Lon S674A active-site mutant) (C. crescentus) (UniProt B8GX12) (assay: affinity purification with mass spectrometry; Twin-Strep-tagged Lon^TRAP (bait) purified on Strep-TactinXT from lysates of Δlon C. crescentus after 2 h xylose; elution fractions TMT-labelled and analysed by LC-MS; compared with Lon^WT and a no-Lon control; two replicates).
T1 sequence: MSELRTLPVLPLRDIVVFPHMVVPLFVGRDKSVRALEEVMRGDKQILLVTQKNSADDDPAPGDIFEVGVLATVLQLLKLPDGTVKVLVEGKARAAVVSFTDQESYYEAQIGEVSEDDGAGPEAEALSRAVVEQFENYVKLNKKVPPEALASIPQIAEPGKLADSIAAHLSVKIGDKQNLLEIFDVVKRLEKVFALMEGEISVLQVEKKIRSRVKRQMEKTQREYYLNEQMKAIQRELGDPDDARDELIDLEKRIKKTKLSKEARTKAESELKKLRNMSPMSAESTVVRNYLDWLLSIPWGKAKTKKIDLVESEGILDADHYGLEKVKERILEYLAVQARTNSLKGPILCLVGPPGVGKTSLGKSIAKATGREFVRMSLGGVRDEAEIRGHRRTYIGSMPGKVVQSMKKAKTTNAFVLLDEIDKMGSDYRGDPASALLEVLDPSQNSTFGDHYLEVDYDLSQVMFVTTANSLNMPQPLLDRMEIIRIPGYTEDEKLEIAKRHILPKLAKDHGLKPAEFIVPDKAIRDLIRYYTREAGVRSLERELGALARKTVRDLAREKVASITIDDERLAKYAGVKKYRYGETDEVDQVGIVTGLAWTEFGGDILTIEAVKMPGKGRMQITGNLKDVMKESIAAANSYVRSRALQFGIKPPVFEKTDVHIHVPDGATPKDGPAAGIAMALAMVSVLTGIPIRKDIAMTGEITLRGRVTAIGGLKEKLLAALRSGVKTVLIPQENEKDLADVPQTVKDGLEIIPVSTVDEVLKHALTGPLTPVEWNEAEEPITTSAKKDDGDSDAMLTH

Row | binding | Substance
1 | binds | FliK
2 | binds | FliX
3 | binds | LarA (CCNA_03707), endogenous
4 | binds | StaR
